Laboratory results: PubChem BioAssay AID652243 (Drosophila RNAi Screening Center, 2013)

Assay: 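Fly genes required for human androgen receptor driven transcription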 (primary screen)
Cells: Drosophila S2R+ cells
Knock-down reagent: long dsRNA against Drosophila genes
Timing: 72 h (48 h, then 24 h hormone)
Challenge: synthetic androgen R1881 at 10 nM for 24 h
Measured: 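Per-well raw luminescence of the androgen-driven firefly reporter and of the Renilla control, two replicates each, without normalisation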
Reading the numbers: firefly reporter light: higher = more light from androgen-responsive reporter; Renilla control light: higher = more constitutive control signal (cell number, transfection)
Hit rule: 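Hit when the log firefly-to-Renilla ratio dropped or increased by a fixed fold versus the mean of GFP or LacZ controls across duplicate plates; lowering cut given as 1.5 and as 3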
Calls: active = hit: reporter lowered or raised; inactive = no hit
The deposit covers about 24,000 reagents; this is an unselected part of those that have a named target and a result. In the full data, 246 (1%) were called active. 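Plates not normalised; calls are printed but the firefly/Renilla ratio behind them is not deposited; fold cut for lowering reported inconsistently.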 The raw values are shown without normalisation. A plus sign joins genes that one reagent is predicted to hit. Not given: the amount of reagent.

Target gene | DRSC id | firefly reporter light, replicate 1 | firefly reporter light, replicate 2 | Renilla control light, replicate 1 | Renilla control light, replicate 2 | Call
Pits (GeneID 32205) | DRSC19385 | 6.28e5 | 5.06e5 | 4.33e6 | 3.94e6 | inactive
Pits (GeneID 32205) | DRSC25013 | 8.82e5 | 8.41e5 | 8.70e5 | 8.28e5 | inactive
CG17666 (GeneID 39452) | DRSC10276 | 2.77e5 | 1.47e5 | 2.74e6 | 1.25e6 | inactive
CG17666 (GeneID 39452) | DRSC26761 | 4.69e5 | 3.87e5 | 7.91e5 | 9.13e5 | inactive
CG3213 (GeneID 33574) | DRSC00576 | 4.39e5 | 5.54e5 | 8.36e5 | 1.07e6 | inactive
CG3213 (GeneID 33574) | DRSC25106 | 6.80e5 | 5.73e5 | 6.98e5 | 6.43e5 | inactive
CG31122 (GeneID 42221) | DRSC16286 | 61159 | 1.42e5 | 1.39e6 | 1.54e6 | inactive
CG31122 (GeneID 42221) | DRSC23448 | 9.21e5 | 7.22e5 | 6.58e5 | 5.69e5 | inactive
CR32733 + CG32797 | DRSC17705 | 1.96e5 | 2.15e5 | 1.90e6 | 2.13e6 | inactive
CG12490 + CG30265 | DRSC25712 | 6.39e5 | 1.03e6 | 9.12e5 | 7.88e5 | inactive
Nepl10 (GeneID 36366) | DRSC07212 | 3.17e5 | 2.07e5 | 2.01e6 | 1.27e6 | inactive
Sgs1 (GeneID 33701) | DRSC00787 | 1.11e5 | 1.56e5 | 1.73e6 | 1.01e6 | inactive
E(spl)m4-BFM (GeneID 43157) | DRSC16992 | 2.39e5 | 1.68e5 | 2.36e6 | 2.23e6 | inactive
E(spl)m4-BFM (GeneID 43157) | DRSC27642 | 1.93e5 | 2.51e5 | 5.46e5 | 7.53e5 | inactive
CG31087 (GeneID 43062) | DRSC14253 | 1.74e5 | 2.11e5 | 2.17e6 | 2.60e6 | inactive
Abcd3 (GeneID 32992) | DRSC19488 | 2.64e5 | 1.77e5 | 1.20e6 | 5.97e5 | inactive
Abcd3 (GeneID 32992) | DRSC29341 | 4.63e5 | 4.61e5 | 1.01e6 | 1.01e6 | inactive
Mst27D (GeneID 319019) | DRSC00967 | 2.48e5 | 2.06e5 | 5.37e5 | 4.37e5 | inactive
CG30016 (GeneID 246393) | DRSC05242 | 1.94e5 | 2.33e5 | 4.18e5 | 79531 | inactive
kkv (GeneID 45884) | DRSC12315 | 45390 | 56818 | 4.11e5 | 4.15e5 | inactive
CG17508 (GeneID 49893) | DRSC07771 | 78421 | 1.36e5 | 7.23e5 | 1.08e6 | inactive
CG32459 (GeneID 40502) | DRSC11852 | 1.99e5 | 2.04e5 | 2.35e6 | 2.85e6 | inactive
CG17283 (GeneID 42094) | DRSC15219 | 95711 | 47291 | 1.41e6 | 1.13e6 | inactive
endos (GeneID 39554) | DRSC10658 | 8.42e5 | 6.84e5 | 1.63e6 | 1.97e6 | inactive
endos (GeneID 39554) | DRSC29476 | 3.07e5 | 3.57e5 | 1.01e6 | 1.01e6 | inactive
CG7214 (GeneID 34053) | DRSC03028 | 6.45e5 | 9.08e5 | 1.80e6 | 2.46e6 | inactive
CG7214 (GeneID 34053) | DRSC21869 | 9.85e5 | 1.06e6 | 1.48e6 | 1.39e6 | inactive
CG7214 (GeneID 34053) | DRSC29482 | 5.54e5 | 5.25e5 | 1.06e6 | 1.06e6 | inactive
CG13689 (GeneID 33241) | DRSC00358 | 2.68e5 | 1.85e5 | 8.90e5 | 6.72e5 | inactive
CG7768 (GeneID 39573) | DRSC10914 | 7.52e5 | 6.14e5 | 1.45e6 | 1.62e6 | inactive
Obp50b + Obp50c | DRSC21818 | 4.93e5 | 4.01e5 | 2.77e6 | 3.32e6 | inactive
CG33725 (GeneID 3772600) | DRSC38844 | 2.10e6 | 1.73e6 | 2.90e6 | 2.34e6 | inactive
CG4613 (GeneID 39586) | DRSC10435 | 2.01e5 | 2.19e5 | 1.62e6 | 1.37e6 | inactive
CG4613 (GeneID 39586) | DRSC25652 | 9.98e5 | 1.12e6 | 1.20e6 | 1.40e6 | inactive
Ubc7 (GeneID 44054) | DRSC20299 | 5.19e5 | 6.65e5 | 3.44e6 | 3.34e6 | inactive
Tmx3 (GeneID 39775) | DRSC10471 | 38544 | 46558 | 4.23e5 | 3.51e5 | inactive
Jarid2 (GeneID 39103) | DRSC10372 | 5.53e5 | 4.96e5 | 8.76e5 | 8.62e5 | inactive
Atg8a (GeneID 32001) | DRSC18024 | 4.24e5 | 4.39e5 | 2.67e6 | 2.62e6 | inactive
Atg8a (GeneID 32001) | DRSC24298 | 7.84e5 | 1.28e6 | 1.04e6 | 1.35e6 | inactive
CG3176 + CR18166 + CG32817 | DRSC17271 | 8.64e5 | 6.56e5 | 6.87e5 | 4.15e5 | inactive
CG3176 + CR18166 + CG32817 | DRSC17282 | 9.63e5 | 6.85e5 | 5.05e5 | 2.18e5 | inactive
CG3176 + CR18166 + CG32817 | DRSC18288 | 1.25e5 | 87582 | 8.31e5 | 5.38e5 | inactive
CG3176 + CR18166 + CG32817 | DRSC28432 | 1.95e5 | 4.49e5 | 7.02e5 | 1.03e6 | inactive

Part of the list above, reformatted.
{"Target gene": "Atg8a (GeneID 32001)", "DRSC id": "DRSC24298", "firefly reporter light, replicate 1": 7.84e5, "firefly reporter light, replicate 2": 1.28e6, "Renilla control light, replicate 1": 1.04e6, "Renilla control light, replicate 2": 1.35e6, "Call": "inactive"}
{"Target gene": "CG3176 + CR18166 + CG32817", "DRSC id": "DRSC17271", "firefly reporter light, replicate 1": 8.64e5, "firefly reporter light, replicate 2": 6.56e5, "Renilla control light, replicate 1": 6.87e5, "Renilla control light, replicate 2": 4.15e5, "Call": "inactive"}
{"Target gene": "CG3176 + CR18166 + CG32817", "DRSC id": "DRSC17282", "firefly reporter light, replicate 1": 9.63e5, "firefly reporter light, replicate 2": 6.85e5, "Renilla control light, replicate 1": 5.05e5, "Renilla control light, replicate 2": 2.18e5, "Call": "inactive"}
{"Target gene": "CG3176 + CR18166 + CG32817", "DRSC id": "DRSC18288", "firefly reporter light, replicate 1": 1.25e5, "firefly reporter light, replicate 2": 87582, "Renilla control light, replicate 1": 8.31e5, "Renilla control light, replicate 2": 5.38e5, "Call": "inactive"}
